Laboratory results published in paper PMC3549954, “A Lectin with Highly Potent Inhibitory Activity toward Breast Cancer Cells from Edible Tubers of Dioscorea opposita cv. Nagaimo” (PLoS ONE, 2013).

What follows are compounds tested on T1, nagaimo lectin (assay: inhibition of hemagglutination (rabbit red blood cells)). Conditions: PBS pH 7.2, room temperature; sugar binding site.
T1 construct: native, purified from supermarket tubers (Q-Sepharose, Mono Q, Superdex 75); 70-kDa dimer of 35-kDa subunits (70 kDa in non-reducing SDS-PAGE); N-terminus NPFVFFVAINNP
Assay type: biochemical, Dioscorea polystachya

First: OC[C@H]1O[C@@H](O[C@H]2[C@H](O)[C@@H](O)C(O)O[C@@H]2CO)[C@H](O)[C@@H](O)[C@H]1O (stereo partly drawn) [lactose]
Second: OC[C@H]1OC(O)[C@H](O)[C@@H](O)[C@H]1O (stereo partly drawn) [galactose]
The “minimal concentration required for reduction of hemagglutinating activity” value of the first is 4-fold lower: 5 mM for the first, 20 mM for the second.

OC[C@H]1O[C@H](OC[C@H]2O[C@H](O[C@]3(CO)O[C@H](CO)[C@@H](O)[C@@H]3O)[C@H](O)[C@@H](O)[C@@H]2O)[C@H](O)[C@@H](O)[C@H]1O [raffinose] was tested, and the “minimal concentration required for reduction of hemagglutinating activity” value was 40 mM.
